Experimental data published in patent US20260131324A1, “A CONTAINER FOR IN VITRO DRUG TESTING” (National University of Singapore, priority 2022, published 2026).

Assay: Proof-of-concept model: diffusion through agarose hydrogel container (version 1.0) in modified flow-through cell
Assay type: physicochemical
Settings: m-cresol in Actrapid vs m-cresol in Apidra
Text: FIG. 4A illustrates a hydrogel container 402 (left) and a modified flow-through cell 404 (right) used as a proof-of-concept model for the diffusion experiment shown in the first flow chart 300A of FIG. 3. The proof-of-concept model was designed to affirm the discriminative power of an agarose hydrogel under continuous media flow. Serving as a physicochemical barrier between drug and media, it is supposed to generate data ascertaining differences in diffusion behaviour and gel interaction of closely related drug formulations. For this, Actrapid® (regular human insulin, hexamer) and Apidra® (insulin glulisine) were chosen as model peptide formulations for the initial setup. m-Cresol, present in both formulations, was quantified as well, serving as an internal standard.
A cylindrical gel that forms both the physicochemical barrier and pocket was prepared with the help of custom-made plastic receptacles. The gel consists of 2% (w/w) agarose dissolved in PBS. […] After cooling at room temperature, the gel is formed and ready to use. […]
FIG. 4B illustrates an assay setup for the proof-of-concept model of FIG. 4A for in vitro drug testing. […] Quantification of insulin and m-cresol in the medium was then carried out by HPLC. Subsequently, the cumulative diffusion of the model drugs was calculated by comparing the diffused amount with the initially added drug concentration. […]

Cc1cccc(O)c1 [m-cresol, m-Cresol]
difference factor f1 of m-cresol diffusion profiles: 5 | similarity factor f2 of m-cresol diffusion profiles: 71

Where no unit stands, none is given here, and values compare only within one read-out.
